From the supplement of paper PMC10849652
The list shows a part of the results.

Protein sequences, listed by entry. Tags and fused reporters are not part of them. Lines headed by an entry give the natural chain unless they say otherwise; changes in a name come on top.
UniProt Q96JM3: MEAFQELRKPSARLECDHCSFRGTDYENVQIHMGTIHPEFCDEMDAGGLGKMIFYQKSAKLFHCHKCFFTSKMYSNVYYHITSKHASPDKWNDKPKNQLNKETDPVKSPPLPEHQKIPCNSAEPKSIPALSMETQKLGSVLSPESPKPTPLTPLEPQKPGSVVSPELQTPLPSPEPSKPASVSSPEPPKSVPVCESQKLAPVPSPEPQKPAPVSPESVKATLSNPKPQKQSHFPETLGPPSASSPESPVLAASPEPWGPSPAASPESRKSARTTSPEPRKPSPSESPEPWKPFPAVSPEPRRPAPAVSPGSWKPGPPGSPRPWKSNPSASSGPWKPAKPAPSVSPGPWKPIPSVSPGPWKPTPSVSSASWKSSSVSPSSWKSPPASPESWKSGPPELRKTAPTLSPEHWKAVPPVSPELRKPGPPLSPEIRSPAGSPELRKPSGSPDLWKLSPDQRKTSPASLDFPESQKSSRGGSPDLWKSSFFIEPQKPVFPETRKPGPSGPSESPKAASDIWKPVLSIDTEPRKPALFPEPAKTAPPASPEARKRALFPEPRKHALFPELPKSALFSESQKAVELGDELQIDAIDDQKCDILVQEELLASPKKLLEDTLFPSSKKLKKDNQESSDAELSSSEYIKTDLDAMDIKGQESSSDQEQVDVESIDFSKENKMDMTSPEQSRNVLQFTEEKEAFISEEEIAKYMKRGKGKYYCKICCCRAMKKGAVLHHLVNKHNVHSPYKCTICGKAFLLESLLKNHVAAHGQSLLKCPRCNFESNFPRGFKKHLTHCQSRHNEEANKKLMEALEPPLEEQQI
UniProt P35790, whole entry, looked up: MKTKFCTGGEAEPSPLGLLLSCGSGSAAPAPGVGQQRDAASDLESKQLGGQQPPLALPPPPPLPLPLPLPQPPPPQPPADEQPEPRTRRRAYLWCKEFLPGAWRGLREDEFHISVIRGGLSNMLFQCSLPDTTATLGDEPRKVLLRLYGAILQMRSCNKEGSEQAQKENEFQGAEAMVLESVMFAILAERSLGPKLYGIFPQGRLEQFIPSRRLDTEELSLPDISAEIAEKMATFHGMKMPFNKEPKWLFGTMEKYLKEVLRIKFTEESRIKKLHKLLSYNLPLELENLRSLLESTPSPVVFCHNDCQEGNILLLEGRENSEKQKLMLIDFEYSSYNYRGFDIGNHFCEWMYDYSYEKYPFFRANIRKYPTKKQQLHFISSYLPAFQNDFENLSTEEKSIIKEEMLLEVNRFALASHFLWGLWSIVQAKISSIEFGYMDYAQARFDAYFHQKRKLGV
UniProt P09497: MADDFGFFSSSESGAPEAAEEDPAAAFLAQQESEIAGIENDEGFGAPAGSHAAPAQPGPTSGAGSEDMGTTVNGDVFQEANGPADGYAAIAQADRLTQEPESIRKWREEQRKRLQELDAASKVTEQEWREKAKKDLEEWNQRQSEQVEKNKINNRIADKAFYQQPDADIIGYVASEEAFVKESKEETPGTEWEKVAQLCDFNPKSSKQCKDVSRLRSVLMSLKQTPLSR
UniProt Q9NZ45: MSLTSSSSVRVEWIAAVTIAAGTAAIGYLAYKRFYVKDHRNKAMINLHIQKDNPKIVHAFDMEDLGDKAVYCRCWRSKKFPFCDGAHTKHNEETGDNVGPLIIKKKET
UniProt Q9BRQ6: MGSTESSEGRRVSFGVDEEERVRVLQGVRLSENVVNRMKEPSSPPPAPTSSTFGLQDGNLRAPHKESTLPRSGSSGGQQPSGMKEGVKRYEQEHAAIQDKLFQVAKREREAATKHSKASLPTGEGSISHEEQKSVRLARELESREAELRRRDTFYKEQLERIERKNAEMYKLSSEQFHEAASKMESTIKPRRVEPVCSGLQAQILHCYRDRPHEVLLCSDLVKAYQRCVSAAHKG
UniProt Q8IZR5: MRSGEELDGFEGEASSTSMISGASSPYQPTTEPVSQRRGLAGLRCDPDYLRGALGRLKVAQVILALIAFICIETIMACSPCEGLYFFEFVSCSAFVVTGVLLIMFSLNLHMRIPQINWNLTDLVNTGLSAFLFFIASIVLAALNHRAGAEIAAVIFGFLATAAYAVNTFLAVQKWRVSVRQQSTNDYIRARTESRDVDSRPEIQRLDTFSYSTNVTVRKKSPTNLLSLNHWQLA
UniProt P51797: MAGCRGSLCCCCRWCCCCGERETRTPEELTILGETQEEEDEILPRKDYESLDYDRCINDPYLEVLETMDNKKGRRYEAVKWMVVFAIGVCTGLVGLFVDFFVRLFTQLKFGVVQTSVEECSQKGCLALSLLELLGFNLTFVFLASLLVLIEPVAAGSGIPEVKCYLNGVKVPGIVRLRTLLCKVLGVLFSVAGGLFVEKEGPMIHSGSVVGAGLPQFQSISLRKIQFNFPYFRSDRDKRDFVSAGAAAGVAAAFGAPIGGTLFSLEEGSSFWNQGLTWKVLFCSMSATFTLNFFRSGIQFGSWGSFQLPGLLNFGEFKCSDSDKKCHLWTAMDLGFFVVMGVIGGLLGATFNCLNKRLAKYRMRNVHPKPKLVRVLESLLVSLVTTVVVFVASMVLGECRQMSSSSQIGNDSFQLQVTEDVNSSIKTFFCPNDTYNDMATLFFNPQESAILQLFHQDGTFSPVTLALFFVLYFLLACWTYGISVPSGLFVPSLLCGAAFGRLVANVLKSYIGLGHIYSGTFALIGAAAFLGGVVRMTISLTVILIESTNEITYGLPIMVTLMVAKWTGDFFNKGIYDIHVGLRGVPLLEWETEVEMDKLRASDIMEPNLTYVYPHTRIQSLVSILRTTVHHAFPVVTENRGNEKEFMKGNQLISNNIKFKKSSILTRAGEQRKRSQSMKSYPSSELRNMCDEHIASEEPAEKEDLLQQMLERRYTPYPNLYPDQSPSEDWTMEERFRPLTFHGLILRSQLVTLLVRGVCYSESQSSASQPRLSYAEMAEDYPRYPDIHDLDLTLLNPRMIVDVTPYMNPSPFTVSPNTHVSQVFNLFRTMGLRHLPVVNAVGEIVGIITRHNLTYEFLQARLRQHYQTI
UniProt Q96AJ1: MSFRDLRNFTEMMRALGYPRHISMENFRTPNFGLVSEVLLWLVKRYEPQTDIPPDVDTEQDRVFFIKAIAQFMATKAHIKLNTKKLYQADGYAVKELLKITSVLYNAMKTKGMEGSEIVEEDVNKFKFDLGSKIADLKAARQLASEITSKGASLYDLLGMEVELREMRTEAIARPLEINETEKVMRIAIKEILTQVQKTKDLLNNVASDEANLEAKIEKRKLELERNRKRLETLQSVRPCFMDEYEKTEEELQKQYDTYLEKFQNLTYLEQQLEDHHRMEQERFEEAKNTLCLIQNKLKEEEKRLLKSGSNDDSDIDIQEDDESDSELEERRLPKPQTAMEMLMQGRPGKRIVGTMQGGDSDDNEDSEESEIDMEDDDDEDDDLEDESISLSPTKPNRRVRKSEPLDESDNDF
UniProt Q15846: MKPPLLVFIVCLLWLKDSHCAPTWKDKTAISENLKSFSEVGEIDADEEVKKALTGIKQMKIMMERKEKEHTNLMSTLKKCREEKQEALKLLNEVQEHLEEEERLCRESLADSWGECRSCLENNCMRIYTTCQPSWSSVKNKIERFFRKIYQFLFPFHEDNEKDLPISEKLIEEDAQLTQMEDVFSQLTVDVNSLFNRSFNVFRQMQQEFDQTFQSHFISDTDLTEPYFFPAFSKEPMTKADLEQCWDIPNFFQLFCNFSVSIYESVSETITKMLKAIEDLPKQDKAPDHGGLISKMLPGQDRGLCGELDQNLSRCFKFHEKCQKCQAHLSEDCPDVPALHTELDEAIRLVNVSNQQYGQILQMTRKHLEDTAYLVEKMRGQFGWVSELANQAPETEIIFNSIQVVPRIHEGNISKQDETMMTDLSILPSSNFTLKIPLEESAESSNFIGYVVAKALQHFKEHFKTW
UniProt Q8WYQ3: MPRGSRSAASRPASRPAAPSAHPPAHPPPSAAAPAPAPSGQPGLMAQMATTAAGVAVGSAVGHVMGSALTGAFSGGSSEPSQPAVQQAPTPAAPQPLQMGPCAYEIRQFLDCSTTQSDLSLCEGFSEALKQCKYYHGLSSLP
UniProt O75122: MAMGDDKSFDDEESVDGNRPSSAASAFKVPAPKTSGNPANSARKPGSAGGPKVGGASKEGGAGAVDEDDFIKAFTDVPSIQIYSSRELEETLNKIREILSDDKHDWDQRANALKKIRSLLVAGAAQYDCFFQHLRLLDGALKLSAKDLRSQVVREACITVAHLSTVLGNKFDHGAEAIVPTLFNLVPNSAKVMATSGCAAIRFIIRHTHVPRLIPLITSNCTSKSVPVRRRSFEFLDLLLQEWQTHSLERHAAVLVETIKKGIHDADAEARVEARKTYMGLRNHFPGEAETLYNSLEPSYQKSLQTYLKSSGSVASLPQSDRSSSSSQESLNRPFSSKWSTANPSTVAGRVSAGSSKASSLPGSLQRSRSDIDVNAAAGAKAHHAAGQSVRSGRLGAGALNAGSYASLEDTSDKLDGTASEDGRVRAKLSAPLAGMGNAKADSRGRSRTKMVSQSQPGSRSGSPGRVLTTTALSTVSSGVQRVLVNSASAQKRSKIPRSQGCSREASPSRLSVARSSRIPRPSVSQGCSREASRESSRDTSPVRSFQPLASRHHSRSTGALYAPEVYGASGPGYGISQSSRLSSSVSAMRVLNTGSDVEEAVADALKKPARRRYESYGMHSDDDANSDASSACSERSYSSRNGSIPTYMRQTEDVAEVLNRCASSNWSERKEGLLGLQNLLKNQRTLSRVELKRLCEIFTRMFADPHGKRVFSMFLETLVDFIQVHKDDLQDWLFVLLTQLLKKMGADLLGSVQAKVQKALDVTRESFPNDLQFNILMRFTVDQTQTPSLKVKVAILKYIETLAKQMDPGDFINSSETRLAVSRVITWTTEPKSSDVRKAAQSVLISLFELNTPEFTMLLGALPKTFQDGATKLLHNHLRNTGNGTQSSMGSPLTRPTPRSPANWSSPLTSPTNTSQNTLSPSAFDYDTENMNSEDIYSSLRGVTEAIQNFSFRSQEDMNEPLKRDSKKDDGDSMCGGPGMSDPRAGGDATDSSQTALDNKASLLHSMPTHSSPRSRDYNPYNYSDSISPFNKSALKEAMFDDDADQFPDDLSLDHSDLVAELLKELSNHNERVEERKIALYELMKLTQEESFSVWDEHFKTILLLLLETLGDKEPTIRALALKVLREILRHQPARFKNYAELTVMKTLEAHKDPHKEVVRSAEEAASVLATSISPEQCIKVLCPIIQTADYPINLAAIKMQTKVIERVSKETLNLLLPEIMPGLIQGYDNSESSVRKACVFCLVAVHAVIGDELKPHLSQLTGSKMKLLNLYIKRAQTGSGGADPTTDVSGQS
UniProt Q9Y3D0: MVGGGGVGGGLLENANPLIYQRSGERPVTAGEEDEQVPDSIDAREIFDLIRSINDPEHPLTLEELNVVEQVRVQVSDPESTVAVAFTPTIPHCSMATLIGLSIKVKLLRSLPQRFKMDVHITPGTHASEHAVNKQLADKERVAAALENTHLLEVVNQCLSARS
UniProt P0C7P0: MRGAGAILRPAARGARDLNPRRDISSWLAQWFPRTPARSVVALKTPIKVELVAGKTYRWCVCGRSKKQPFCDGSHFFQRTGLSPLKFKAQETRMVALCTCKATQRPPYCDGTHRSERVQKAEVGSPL
UniProt Q8IYA6: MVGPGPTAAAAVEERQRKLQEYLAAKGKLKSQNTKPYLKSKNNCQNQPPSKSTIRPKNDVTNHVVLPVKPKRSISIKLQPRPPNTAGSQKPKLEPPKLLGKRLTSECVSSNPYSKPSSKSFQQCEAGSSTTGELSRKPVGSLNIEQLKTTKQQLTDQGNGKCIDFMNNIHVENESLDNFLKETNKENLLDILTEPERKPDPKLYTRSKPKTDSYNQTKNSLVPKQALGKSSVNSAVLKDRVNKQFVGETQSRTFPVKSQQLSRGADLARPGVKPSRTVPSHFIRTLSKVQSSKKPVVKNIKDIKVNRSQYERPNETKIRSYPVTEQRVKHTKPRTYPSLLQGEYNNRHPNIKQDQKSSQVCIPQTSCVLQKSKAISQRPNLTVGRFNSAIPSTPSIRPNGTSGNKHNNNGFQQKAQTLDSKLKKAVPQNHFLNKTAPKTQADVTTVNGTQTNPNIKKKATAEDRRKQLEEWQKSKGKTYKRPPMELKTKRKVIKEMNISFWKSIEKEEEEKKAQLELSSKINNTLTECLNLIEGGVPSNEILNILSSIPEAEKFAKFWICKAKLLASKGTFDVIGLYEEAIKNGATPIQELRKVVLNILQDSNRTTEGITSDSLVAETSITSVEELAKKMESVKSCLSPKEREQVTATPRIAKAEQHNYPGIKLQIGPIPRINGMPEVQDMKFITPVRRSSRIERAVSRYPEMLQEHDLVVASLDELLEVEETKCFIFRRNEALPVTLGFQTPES
UniProt P0CG13, whole entry, looked up: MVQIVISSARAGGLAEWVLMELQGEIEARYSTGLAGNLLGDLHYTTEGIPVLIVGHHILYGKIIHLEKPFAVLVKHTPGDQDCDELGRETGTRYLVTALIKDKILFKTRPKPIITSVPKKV
UniProt Q9NX76: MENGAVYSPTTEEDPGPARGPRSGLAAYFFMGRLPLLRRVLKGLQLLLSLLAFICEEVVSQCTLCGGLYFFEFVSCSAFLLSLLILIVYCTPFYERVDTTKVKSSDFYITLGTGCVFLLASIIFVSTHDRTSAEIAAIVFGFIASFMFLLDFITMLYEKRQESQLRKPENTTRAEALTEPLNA

Assays:
Test in all cases: log2 fold change, soluble protein after heating vs DMSO (PISA); higher = thermal stabilisation; K562 lysate, 10 uM; active = over 0.2 and 3.5 SD of the protein, either way, in both replicates (recomputed)
[1] = compound: CCCS(=O)(=O)Nc1ccc(F)c(C(=O)c2c[nH]c3ncc(-c4ccc(Cl)cc4)cc23)c1F [vemurafenib]
Method in brief: (§1)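 Dounce homogenisation of K562 pellets in PBS pH 7.4 with 1 mM MgCl2 produced a crude extract, used at 1 mg/mL protein. Exposure to 10 μM compound lasted 30 min, and aliquots were then heated for 3 min across 48°C-58°C, pooled and brought to 0.5% NP-40 at 4°C. The supernatant after 21,000xg for 90 min was quantified by TMTpro 16plex LC-MS/MS with channel sums equalised. Duplicate values are given as log-two fold change in thermal stability relative to solvent controls.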

[2] = compound: CCCS(=O)(=O)Nc1ccc(F)c(C(=O)c2c[nH]c3ncc(Cl)cc23)c1F
Method in brief: as §1

[3] = compound: CCN(CCCOc1ccc2c(Nc3cc(CC(=O)Nc4cccc(F)c4)[nH]n3)ncnc2c1)CCOP(=O)(O)O [barasertib]
Method in brief: as §1

[4] = compound: CC[C@@H]1C(=O)N(C)c2cnc(Nc3ccc(C(=O)NC4CCN(C)CC4)cc3OC)nc2N1C1CCCC1
Method in brief: as §1

[5] = compound: CC[C@@H]1C(=O)N(C)c2cnc(Nc3ccc(C(=O)N[C@H]4CC[C@H](N5CCN(CC6CC6)CC5)CC4)cc3OC)nc2N1C(C)C [volasertib]
Method in brief: as §1

[6] = compound: CCn1c(C(=O)N(C2CC2)C2CC2)cc2c3c(ncn3C)c(Nc3cc(C)n(C)n3)nc21
Method in brief: as §1

[7] = compound: CCn1cc(-c2ccnc3[nH]c(-c4cccc(CN(C)C)c4)cc23)c(-c2ccc(NC(=O)N(C)C)cc2)n1
Method in brief: as §1

[8] = compound: CN1CCC(CNc2ccc3ncc(-c4cccc(OC(F)(F)F)c4)n3n2)CC1
Method in brief: as §1

[9] = compound: CN1CCN(CCOc2cc(OC3CCOCC3)c3c(Nc4c(Cl)ccc5c4OCO5)ncnc3c2)CC1 [saracatinib]
Method in brief: as §1

[10] = compound: CN1CCN(c2nc(C3=C(c4c[nH]c5ccccc45)C(=O)NC3=O)c3ccccc3n2)CC1 [sotrastaurin]
Method in brief: as §1

[11] = compound: CN1CC[C@H](c2c(O)cc(O)c3c(=O)cc(-c4ccccc4Cl)oc23)[C@H](O)C1 [alvocidib]
Method in brief: as §1

[12] = compound: CN1CCc2c(c3ccccc3n2Cc2ccc(C(=O)NO)cc2)C1 [Tubastatin A]
Method in brief: as §1

[13] = compound: CNC(=O)C1=CC=CC=C1NC2=NC(=NC=C2Cl)NC3=C(C=C(C=C3)N4CCOCC4)OC
Method in brief: as §1

[14] = compound: CNC(=O)c1ccc(Nc2ncc(C(F)(F)F)c(NCc3nccnc3N(C)S(C)(=O)=O)n2)cc1 [defactinib]
Method in brief: as §1

[15] = compound: CNc1nc(-c2ccc3c(N)n[nH]c3c2)cc(N2C[C@@H](C(=O)NC3CCCCC3)CC[C@H]2C)n1
Method in brief: as §1

[16] = compound: COC(=O)N[C@@H](C)CNc1nccc(-c2cn(C(C)C)nc2-c2cc(Cl)cc(NS(C)(=O)=O)c2F)n1 [encorafenib]
Method in brief: as §1

[17] = compound: COC(=O)[C@H](CCSC)NC(=O)C1=C(C=C(C=C1)NC[C@H](CS)N)C2=CC=CC=C2
Method in brief: as §1

[18] = compound: COc1cc(Nc2ncc3c(n2)-c2ccc(Cl)cc2C(c2c(F)cccc2OC)=NC3)ccc1C(=O)O [alisertib]
Method in brief: as §1

[19] = compound: COc1cc2nc(-c3cc(F)ccc3O)nc(N[C@@H]3CNC[C@H]3C(C)(C)O)c2cc1OC
Method in brief: as §1

[20] = compound: COc1cc2ncnc(Nc3ccc(F)c(Cl)c3)c2cc1OCCCN1CCOCC1 [gefitinib]
Method in brief: as §1

Measured: log2 fold change

CHAMP1 (UniProt Q96JM3)
inactive: [1] 0.051 | [2] -0.019 | [3] -0.004 | [4] 0.053 | [5] -0.02 | [6] -0.005 | [7] 0.05 | [8] -0.006 | [9] 0.009 | [10] -0.009 | [11] -0.002 | [12] -0.012 | [13] 0.037 | [14] 0.049 | [15] -0.009 | [16] 0.006 | [17] 0.013 | [18] -0.035 | [19] -0.047 | [20] -0.04

CHKA (UniProt P35790)
inactive: [1] -0.039 | [2] -0.057 | [3] -0.044 | [4] -0.012 | [5] 0.002 | [6] -0.009 | [7] 0.051 | [8] 0.028 | [9] 0.052 | [10] 0.029 | [11] -0.025 | [12] 0.12 | [13] 0.027 | [14] 0.066 | [15] 0.132 | [16] 0.013 | [17] -0.009 | [18] -0.02 | [19] -0.011 | [20] -0.053

CLTB isoform 2 (UniProt P09497)
inactive: [1] -0.036 | [2] -0.001 | [3] 0.093 | [4] 0.025 | [5] 0.001 | [6] -0.046 | [7] 0.047 | [8] 0.015 | [9] 0.027 | [10] -0.016 | [11] -0.002 | [12] 0.05 | [13] -0.001 | [14] 0.008 | [15] 0.028 | [16] -0.021 | [17] -0.011 | [18] -0.023 | [19] 0.017 | [20] -0.008

CISD1 (UniProt Q9NZ45)
inactive: [1] 0.002 | [2] 0.01 | [3] -0.043 | [4] 0.012 | [5] 0.044 | [6] -0.046 | [7] -0.145 | [8] 0.188 | [9] 0.013 | [10] -0.038 | [11] -0.021 | [12] 0.087 | [13] -0.032 | [14] -0.004 | [15] 0.035 | [16] -0.048 | [17] 0.003 | [18] 0.036 | [19] 0.015 | [20] -0.074

CHCHD6 (UniProt Q9BRQ6)
inactive: [1] -0.053 | [2] 0 | [3] 0.026 | [4] 0.125 | [5] 0.352 | [6] -0.005 | [7] 0.03 | [8] 0.011 | [9] -0.213 | [10] -0.051 | [11] 0.029 | [12] 0.031 | [13] -0.101 | [14] -0.055 | [15] 0.208 | [16] 0.066 | [17] -0.003 | [19] -0.133

CMTM4 (UniProt Q8IZR5)
inactive: [1] 0.086 | [2] 0.06 | [5] 0.139 | [7] -0.009 | [8] -0.005 | [10] 0.013 | [11] -0.051 | [13] 0.014 | [14] -0.109 | [19] 0.063

CLCN6 isoform 5 (UniProt P51797)
inactive: [1] 0.019 | [2] 0.021 | [3] 0.127 | [4] 0.072 | [5] 0.04 | [6] -0.1 | [9] 0.075 | [10] 0.05 | [12] -0.059 | [13] -0.02 | [14] -0.101 | [15] 0.038 | [16] -0.02 | [17] 0.034 | [19] 0.038

CLUAP1 (UniProt Q96AJ1)
inactive: [1] -0.424 | [2] 0.092 | [4] -0.357 | [5] 0.034 | [6] 0.075 | [7] 0.107 | [8] 0.084 | [9] 0.201 | [10] -0.057 | [11] 0.013 | [12] -0.022 | [13] 0.067 | [14] -0.057 | [15] -0.132 | [16] 0.009 | [17] -0.004 | [19] -0.03

CLUL1 (UniProt Q15846)
inactive: [1] 0.019 | [2] -0.128 | [3] 0.358 | [5] -0.018 | [7] -0.332 | [8] 0.065 | [11] -0.02 | [14] -0.108 | [18] -0.049 | [19] 0.07 | [20] 0.058

2 neighbouring entries out of the list so far, quoted:
CLUAP1 (UniProt Q96AJ1)
inactive: [1] -0.424 | [2] 0.092 | [4] -0.357 | [5] 0.034 | [6] 0.075 | [7] 0.107 | [8] 0.084 | [9] 0.201 | [10] -0.057 | [11] 0.013 | [12] -0.022 | [13] 0.067 | [14] -0.057 | [15] -0.132 | [16] 0.009 | [17] -0.004 | [19] -0.03

CLUL1 (UniProt Q15846)
inactive: [1] 0.019 | [2] -0.128 | [3] 0.358 | [5] -0.018 | [7] -0.332 | [8] 0.065 | [11] -0.02 | [14] -0.108 | [18] -0.049 | [19] 0.07 | [20] 0.058

More records.

CLTA isoform 2 (UniProt P09496)
inactive: [1] -0.158 | [2] -0.005 | [3] 0.04 | [4] 0.171 | [5] 0.039 | [6] -0.114 | [9] -0.061 | [10] 0.034 | [12] 0.028 | [13] -0.004 | [14] 0.111 | [15] 0.004 | [16] -0.205 | [17] 0.129 | [18] 0.034 | [19] 0.011 | [20] -0.014

CHCHD10 (UniProt Q8WYQ3)
inactive: [1] 0 | [2] 0.028 | [3] 0.006 | [4] 0.041 | [5] -0.009 | [6] 0.129 | [7] 0.196 | [8] -0.117 | [9] 0.014 | [11] -0.001 | [12] 0.026 | [13] 0.009 | [14] -0.044 | [15] -0.066 | [16] -0.056 | [17] -0.084 | [18] -0.105 | [19] -0.009 | [20] -0.119

CLASP2 (UniProt O75122)
inactive: [1] 0.241 | [2] 0.072 | [3] -0.015 | [4] 0.021 | [5] -0.052 | [6] -0.098 | [7] -0.077 | [8] 0.073 | [10] 0.18 | [11] -0.139 | [12] -0.066 | [14] 0.002 | [16] 0.058 | [17] -0.071 | [18] 0.182 | [19] 0.037 | [20] -0.047

CIAO2B (UniProt Q9Y3D0)
inactive: [1] -0.004 | [2] 0.036 | [3] 0.123 | [4] -0.053 | [5] -0.022 | [6] 0.025 | [9] 0.049 | [10] 0.084 | [12] -0.016 | [13] 0.037 | [14] 0.029 | [15] 0.087 | [16] 0.015 | [17] -0.015 | [18] -0.03 | [19] 0.023 | [20] -0.112

CISD3 (UniProt P0C7P0)
inactive: [1] -0.049 | [2] 0.003 | [4] 0.037 | [5] -0.022 | [6] 0.046 | [7] -0.029 | [8] -0.088 | [9] -0.028 | [10] -0.013 | [11] -0.029 | [12] 0.028 | [13] -0.043 | [14] 0.014 | [15] 0.066 | [16] -0.028 | [17] -0.039 | [18] -0.032 | [19] 0.03 | [20] 0.023

CKAP2L (UniProt Q8IYA6)
inactive: [1] -0.031 | [4] -0.02 | [6] 0.146 | [7] 0.048 | [8] 0.041 | [9] 0.126 | [10] -0.069 | [11] 0.041 | [12] 0.008 | [13] 0.205 | [14] 0.054 | [15] 0.123 | [16] -0.066 | [17] 0.084 | [18] -0.076 | [20] -0.114

CHTF8 (UniProt P0CG13)
inactive: [2] 0.074 | [3] 0.123 | [4] 0.068 | [5] -0.104 | [6] 0.042 | [7] -0.096 | [8] -0.063 | [9] 0.062 | [10] -0.057 | [11] 0.159 | [12] -0.279 | [13] -0.181 | [15] -0.01 | [16] -0.058 | [17] -0.076 | [18] -0.011 | [19] 0.019 | [20] -0.035

CMTM6 (UniProt Q9NX76)
inactive: [2] 0.061 | [3] 0.031 | [4] -0.039 | [5] 0.091 | [6] -0.103 | [7] -0.077 | [8] 0.104 | [9] 0.052 | [10] 0.256 | [11] -0.056 | [12] 0.232 | [13] 0.07 | [15] 0.046 | [16] -0.037 | [17] 0.075 | [18] -0.025 | [19] -0.035 | [20] 0.054
